Values of other authors in patent publication US11976092B2, “RNA nanostructures, methods of making, and uses thereof” (Ohio State Innovation Foundation, priority 2018, dated 2024).
The name of at least one read-out is uncertain.

Conditions: BCS class IV; cited from earlier work

Which permeability does the source give for CC(=O)O[C@H]1C(=O)[C@@]2(C)[C@H]([C@H](OC(=O)c3ccccc3)[C@]3(O)C[C@H](OC(=O)[C@H](O)[C@@H](NC(=O)c4ccccc4)c4ccccc4)C(C)=C1C3(C)C)[C@]1(OC(C)=O)CO[C@@H]1C[C@@H]2O [Paclitaxel] here?
Its permeability is “low”.
